The values below come from patent US20110160280A1, “CANCER-RELATED GENES, CDCA5, EPHA7, STK31 AND WDHD1” (Oncotherapy Science, Inc., priority 2007, published 2011).

Chains of the proteins cited; added tags and fusions are not shown. Lines headed by an entry give the natural chain unless they say otherwise; changes in a name come on top.
UniProt P06493: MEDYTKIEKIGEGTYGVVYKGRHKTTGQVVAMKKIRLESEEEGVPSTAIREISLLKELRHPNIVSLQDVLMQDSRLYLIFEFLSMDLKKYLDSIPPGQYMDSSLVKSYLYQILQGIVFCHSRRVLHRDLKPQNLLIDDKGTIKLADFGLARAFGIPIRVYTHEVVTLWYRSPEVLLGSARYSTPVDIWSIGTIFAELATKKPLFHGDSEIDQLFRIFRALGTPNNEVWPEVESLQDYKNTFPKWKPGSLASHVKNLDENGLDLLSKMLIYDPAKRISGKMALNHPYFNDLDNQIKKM
UniProt P28482: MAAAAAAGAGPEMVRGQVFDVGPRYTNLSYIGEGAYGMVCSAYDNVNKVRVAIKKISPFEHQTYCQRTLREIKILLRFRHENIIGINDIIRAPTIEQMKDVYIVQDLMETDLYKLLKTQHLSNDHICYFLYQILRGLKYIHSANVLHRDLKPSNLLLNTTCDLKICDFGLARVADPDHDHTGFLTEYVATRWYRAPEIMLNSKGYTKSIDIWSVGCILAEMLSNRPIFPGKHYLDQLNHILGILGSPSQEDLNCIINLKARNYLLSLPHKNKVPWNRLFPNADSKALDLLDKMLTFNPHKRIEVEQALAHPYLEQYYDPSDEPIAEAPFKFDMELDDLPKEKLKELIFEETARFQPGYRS
UniProt Q96FF9: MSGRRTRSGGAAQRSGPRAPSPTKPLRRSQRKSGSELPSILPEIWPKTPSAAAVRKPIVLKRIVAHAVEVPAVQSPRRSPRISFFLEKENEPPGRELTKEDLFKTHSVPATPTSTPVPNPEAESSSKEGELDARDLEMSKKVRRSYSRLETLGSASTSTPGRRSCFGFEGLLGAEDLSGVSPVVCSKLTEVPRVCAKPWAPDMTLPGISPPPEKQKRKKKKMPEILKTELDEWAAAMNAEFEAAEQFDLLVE

No constants are given. Whether binding was seen depends on the method and setting. Some results given as binding are weak or reduced against the parent protein; the word gives no strength.

Assay [1] concerns the target CDC2 (BioLabs) (Homo sapiens (Human)) (UniProt P06493). Nature of the assay: interaction stated on the basis of kinase assays; no separate binding assay reported.
Assay [2] deals with ERK2 (Upstate) (UniProt P28482). The assay is described as above.

As for “full-length recombinant GST-CDCA5 (pGEX-6p-1/CDCA5 cleaved with Precision Protease) (from UniProt Q96FF9 1-252)”, the binding result in assay [1] and in assay [2] was “binds” each time.
